From PubChem BioAssay AID2685 (National Center for Advancing Translational Sciences (NCATS), 2010)
This is one part of the list. The main result of the screen is listed elsewhere. These columns were measured beside it and carry no call. Compounds called inactive in the main read-out are mostly missing here. The note in brackets gives the kind of curve behind each potency; many fits are weak.

Assay: qHTS Assay for Lipid Storage Modulators in Drosophila S3 Cells;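 as to cell number change: cells counted by Cell Tracker Red CMTPX staining in the red channel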
Settings: BODIPY lipid droplet fluorescence, 18-24 h; for cell number change: measured here: cell count max response, cells fed with added oleic acid
Summary of the method: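 Laser-scanning cytometry quantifies lipid droplet accumulation (500–530 nm total intensity; droplet/cell object ratio) in oleic acid-fed (400 uM added) Drosophila S3 cells treated with a concentration series. 20 uM Triacsin C defined 100% inhibition.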

[1] = measured here: lipid fluorescence (Fed channel) AC50, cells fed with added oleic acid
[2] = measured here: cell number channel AC50, cells fed with added oleic acid

Row | Compound | cell number change | AC50 [1] | AC50 [2]
1 | CCC(=O)c1cn(CC(=O)OC)c2ccccc12 | 26.7% | 6.51 µM [falling, single point] | 
2 | O=C(Nc1ccccc1NC(=O)c1ccco1)c1ccccc1 |  | 1.84 µM [falling, full curve] | 
3 | OCC(CO)(CO)NCC(O)CN1c2ccccc2Sc2ccccc21 (stereo not given) | 23.6% |  | 6.51 µM [rising, single point]
4 | CCOC(=O)c1ccc(S(=O)(=O)NCCN2CCOCC2)cc1 | 28.7% | 6.51 µM [rising, full curve] | 
5 | CC(Sc1nc2ccccc2s1)C(=O)Nc1ccc2c(c1)OCO2 (stereo not given) | 34.1% | 20.6 µM [rising, partial curve] | 9.2 µM [rising, partial curve]
6 | CC(C)C(C(=O)NCC1CCCO1)N(CC1CCCO1)C(=O)CNS(=O)(=O)c1ccccc1 (stereo not given) | 33.5% |  | 10.3 µM [rising, single point]
7 | O=C(Nc1cc2c3c(c1)CC(=O)N3CCC2)c1ccc(Cl)cc1 |  |  | 6.51 µM [rising, single point]
8 | Cc1nnsc1Sc1cccc(C(F)(F)F)c1 | 14.8% | 0.58 µM [falling, single point] | 
9 | O=C(c1cccc(S(=O)(=O)N2CCOCC2)c1)N1CCN(S(=O)(=O)c2cccs2)CC1 |  |  | 0.116 µM [rising, full curve, poor fit]
10 | COc1ccc(NC(=S)N(CCN(C)C)C(C)c2ccco2)cc1 (stereo not given) | 7.89% | 16.4 µM [rising, partial curve, poor fit] | 
11 | Cc1c(C(=O)Nc2ccc(Oc3ccccc3)cc2)sc2nc3n(c(=O)c12)CCC3 | -23.5% | 0.184 µM [falling, full curve, poor fit] | 
12 | CC1CCc2c(sc3nc(CSc4nnnn4C)[nH]c(=O)c23)C1 (stereo not given) | -0.132% |  | 0.517 µM [falling, partial curve, poor fit]
13 | CCCCc1nc2cc(C(=O)NC(C)c3cnn(C)c3)ccc2o1 (stereo not given) | 36% |  | 11.6 µM [rising, partial curve]
14 | COc1ccc(C(=O)OCC(=O)NC(=O)NC2CCCC2)c(O)c1 | 24.8% | 2.31 µM [falling, single point] | 
15 | Cc1ccc(C)c(NCCC#N)c1 |  | 1.16 µM [falling, full curve, poor fit] | 
16 | CCN(CC)CCCC(C)NC(=O)c1cccc(S(=O)(=O)N2CCc3ccccc32)c1 (stereo not given) | 32.7% |  | 
17 | CCOC(=O)N1CCC2(CC1)C(C#N)=C(N)Oc1c2c(C)nn1-c1cccc(Cl)c1 | 0.202% |  | 
18 | Cc1cc2ncn(-c3nnnn3-c3ccccc3)c2cc1C | 39% | 6.51 µM [rising, partial curve] | 2.06 µM [rising, partial curve]
19 | Cc1sc2ncnc(SCC(=O)N3CCCC3)c2c1C | 135% | 29.1 µM [rising, partial curve] | 29.1 µM [rising, single point]
20 | CCOC(=O)c1ccc(NC(=O)CNS(=O)(=O)c2ccccc2)cc1 | -33.5% |  | 7.31 µM [falling, partial curve, poor fit]
21 | COc1ccc(/C=N/OCc2ccccc2C#N)c(OC)c1 |  | 1.3 µM [rising, full curve] | 0.58 µM [rising, partial curve, poor fit]

From compound 9 as far as 11, copied from above:
Row | Compound | cell number change | AC50 [1] | AC50 [2]
9 | O=C(c1cccc(S(=O)(=O)N2CCOCC2)c1)N1CCN(S(=O)(=O)c2cccs2)CC1 |  |  | 0.116 µM [rising, full curve, poor fit]
10 | COc1ccc(NC(=S)N(CCN(C)C)C(C)c2ccco2)cc1 (stereo not given) | 7.89% | 16.4 µM [rising, partial curve, poor fit] | 
11 | Cc1c(C(=O)Nc2ccc(Oc3ccccc3)cc2)sc2nc3n(c(=O)c12)CCC3 | -23.5% | 0.184 µM [falling, full curve, poor fit] | 

The results go on:

Row | Compound | cell number change | AC50 [1] | AC50 [2]
22 | COc1cc2c(cc1NC(=O)c1ccncc1)oc1ccccc12 | -10.3% | 6.51 µM [rising, single point] | 
23 | CCC(=O)Nc1ccc(NC(=O)CSc2nnc(-c3ccco3)n2CC)cc1 | 6.25% | 0.13 µM [falling, full curve] | 
24 | CCC(CC)NC(=O)c1cc(OC)c(OC)c(OC)c1 | 7.24% |  | 
25 | COc1ccc(-c2nc(CS(=O)(=O)CC(=O)NCc3ccc(F)cc3)c(C)o2)cc1 | -9.79% | 0.13 µM [rising, full curve, poor fit] | 
26 | CCOc1ccc(NC(=O)c2cc3c(=O)n(C)c4ccccc4c3n2C)cc1 | 30.3% | 29.1 µM [rising, single point] | 29.1 µM [rising, single point]
27 | COC(=O)[C@@H]1CC[C@H](C)[C@@H](c2ccc(C)cc2)N1C(=O)c1ccc(/C=N/O[C@@H](C)CN2CCCCc3nc(C)c(C)cc32)cc1 | -19.4% | 14.6 µM [falling, single point] | 
28 | Cc1ccc(S(=O)(=O)N2CCN(C(=O)CSc3nnnn3C)CC2)c(C)c1 | 2.8% | 6.51 µM [falling, single point] | 
29 | O=C(CN1CCN(c2ccc(F)cc2)CC1)Nc1ccc(F)c(F)c1 |  |  | 1.84 µM [falling, partial curve]
30 | S=C(Nc1ccc(Cl)cc1Cl)NC1CCN(Cc2ccccc2)CC1 | -6.68% |  | 0.00517 µM [falling, full curve, poor fit]
31 | CNS(=O)(=O)c1ccc(N=Cc2c(C)[nH]n(-c3ccc(C)cc3C)c2=O)cc1 | -37.1% | 25.9 µM [falling, single point] | 
32 | COC(=O)c1cc(C(=O)N2CCN(c3ncccn3)CC2)cc([N+](=O)[O-])c1 | 16.2% | 6.51 µM [rising, single point] | 
33 | O=C1c2ccccc2C(=O)N1CCc1csc(-c2ccc(F)cc2)n1 |  |  | 0.092 µM [rising, full curve, poor fit]
34 | COc1ccc(-c2c(C(F)(F)F)[nH]n3c(=O)cc(-c4ccccc4)nc23)cc1 | -26.3% | 16.4 µM [rising, single point] | 
35 | O=C(c1ccco1)N1CCN(Cc2cccc3ccccc23)CC1 | 8.57% |  | 
36 | C/C(=N\N1CCCCC1)c1ccccc1O | -28.8% |  | 
37 | C=CCN(c1ccccc1)S(=O)(=O)c1cccc2cccnc12 | 1.05% | 18.4 µM [rising, single point] | 
38 | CCOc1cc(NC(=O)c2cccs2)c(OCC)cc1NC(=O)CCC(=O)NCc1ccccn1 | -1.49% |  | 
39 | O=C(COc1ccccc1)Nc1cccc(-c2nc3ccccc3[nH]2)c1 | 4.98% | 1.64 µM [rising, partial curve, poor fit] | 
40 | CCc1cccc(NS(=O)(=O)c2cccc3cccnc23)c1 | -29.1% | 3.66 µM [falling, full curve] | 
41 | Cc1nnc(SCC(=O)NC(=O)NC(C)(C)C)n1N | 35.4% | 0.326 µM [rising, full curve, poor fit] | 0.184 µM [rising, full curve]
42 | O=C(NCc1ccc(Cl)cc1)C1CCC(CNS(=O)(=O)c2ccccc2)CC1 (stereo not given) | 228% |  | 

Row | Compound | cell number change | AC50 [1] | AC50 [2]
43 | Cc1cc(/C=N/NC(=O)c2cccs2)c(C)n1-c1ccccc1 | 5.75% | 6.51 µM [rising, single point] | 
44 | CCOC(=O)CC1(NC(=O)C2CCC(=O)N(CCc3ccc(OC)cc3)C2)CCCCC1 (stereo not given) | -22.9% | 29.1 µM [falling, single point] | 
45 | CC(C)(C)N1CC23CCC(C[C@@H]2C1=O)O3 (stereo not given in full) | -14.4% |  | 
46 | CC(=O)Nc1ccccc1N(C)S(=O)(=O)c1ccc(C)cc1 | -20.4% | 0.103 µM [falling, full curve, poor fit] | 
47 | Cc1cc(NS(=O)(=O)c2ccc(NC(=O)c3ccc(Cl)cc3Cl)cc2)no1 | -23.8% |  | 
48 | Cc1cc(NC(=O)c2cccc(S(=O)(=O)N3CCCCCC3)c2)n(-c2ccccn2)n1 | -0.735% |  | 
49 | CCc1ccc(N2C(=O)CC(c3ccc(F)cc3)C3=C2COC3=O)cc1 (stereo not given) | 46.6% |  | 29.1 µM [rising, single point]
50 | CC(C)CCOc1ccc(Cl)cc1CN1CCOCC1 | -3.18% | 20.6 µM [rising, partial curve] | 0.13 µM [falling, full curve, poor fit]
51 | CN(c1ccccc1)S(=O)(=O)c1ccccc1Br | 0.614% | 1.03 µM [rising, partial curve] | 2.06 µM [falling, single point]
52 | Cc1oc(-c2cccs2)nc1CS(=O)CC(=O)NCCCN1CC(C)CC(C)C1 (stereo not given) | -14.3% | 6.51 µM [falling, single point] | 
53 | CNc1nc(C)cc(C)c1S(=O)(=O)c1ccc(C)cc1 | 39.4% |  | 4.61 µM [rising, full curve, poor fit]
54 | O=C(Nc1cccc(O)c1)c1ccc(C(=O)c2ccccc2)o1 | 7.9% |  | 
55 | CC(C)Cn1c(N)c(C(=O)COC(=O)C2CC(=O)N(c3ccc4c(c3)OCCO4)C2)c(=O)n(C)c1=O (stereo not given) | -25% |  | 
56 | Cc1sc2ncnc(N3CCC(C(=O)NNC(=O)COc4ccc(Br)cc4)CC3)c2c1C | -16.7% | 0.00651 µM [falling, full curve, poor fit] | 
57 | CCc1ccc(-c2nc(SCC(=O)NC3CCCC3)n[nH]2)cc1 | -43.6% |  | 
58 | CC1CCN(C(=O)c2cc3nc(-c4ccccc4)cc(-c4ccccc4)n3n2)CC1 | 4.83% | 0.517 µM [rising, full curve] | 0.411 µM [rising, full curve]
59 | CN(C)S(=O)(=O)c1cccc(NC(=O)c2ccc(S(=O)(=O)N3CCCCC3)cc2)c1 | 15% | 29.1 µM [rising, single point] | 
60 | CCNC(=O)NNC(=O)C1CC(c2cccs2)=NO1 (stereo not given) | -32% | 3.66 µM [falling, full curve] | 3.66 µM [falling, full curve]
61 | CCOC(=O)c1c(C)[nH]c(C(=O)COC(=O)CCC(=O)c2ccc3c(c2)OCCO3)c1C | 1.36% | 1.46 µM [rising, partial curve, poor fit] | 
62 | Cc1cc(C)n2nc(S(=O)(=O)Nc3c(Cl)cccc3Cl)nc2n1 | -49.4% | 3.26 µM [falling, partial curve, poor fit] | 0.92 µM [falling, full curve, poor fit]
